Source: the supplement of paper PMC10849652
The other results are listed elsewhere or left out.

Protein sequences, listed by entry. Tags and fused reporters are not part of them. Lines headed by an entry give the natural chain unless they say otherwise; changes in a name come on top.
UniProt Q9BTZ2: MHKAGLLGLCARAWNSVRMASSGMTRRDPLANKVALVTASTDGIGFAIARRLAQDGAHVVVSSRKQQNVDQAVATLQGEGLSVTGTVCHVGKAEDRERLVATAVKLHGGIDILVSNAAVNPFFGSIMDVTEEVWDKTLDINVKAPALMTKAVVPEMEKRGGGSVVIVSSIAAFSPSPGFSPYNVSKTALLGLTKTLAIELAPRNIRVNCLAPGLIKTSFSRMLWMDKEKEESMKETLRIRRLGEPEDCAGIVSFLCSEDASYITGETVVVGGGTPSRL
UniProt Q9UDY4: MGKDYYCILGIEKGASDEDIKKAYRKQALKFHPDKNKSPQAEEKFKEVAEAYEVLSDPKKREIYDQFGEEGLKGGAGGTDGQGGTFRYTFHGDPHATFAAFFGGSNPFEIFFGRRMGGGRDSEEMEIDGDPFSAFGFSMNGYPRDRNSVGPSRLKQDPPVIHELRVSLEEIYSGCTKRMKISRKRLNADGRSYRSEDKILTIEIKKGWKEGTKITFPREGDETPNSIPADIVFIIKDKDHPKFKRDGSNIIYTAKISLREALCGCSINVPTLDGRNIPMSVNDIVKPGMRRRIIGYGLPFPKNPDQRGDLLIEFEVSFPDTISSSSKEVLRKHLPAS
UniProt Q99615: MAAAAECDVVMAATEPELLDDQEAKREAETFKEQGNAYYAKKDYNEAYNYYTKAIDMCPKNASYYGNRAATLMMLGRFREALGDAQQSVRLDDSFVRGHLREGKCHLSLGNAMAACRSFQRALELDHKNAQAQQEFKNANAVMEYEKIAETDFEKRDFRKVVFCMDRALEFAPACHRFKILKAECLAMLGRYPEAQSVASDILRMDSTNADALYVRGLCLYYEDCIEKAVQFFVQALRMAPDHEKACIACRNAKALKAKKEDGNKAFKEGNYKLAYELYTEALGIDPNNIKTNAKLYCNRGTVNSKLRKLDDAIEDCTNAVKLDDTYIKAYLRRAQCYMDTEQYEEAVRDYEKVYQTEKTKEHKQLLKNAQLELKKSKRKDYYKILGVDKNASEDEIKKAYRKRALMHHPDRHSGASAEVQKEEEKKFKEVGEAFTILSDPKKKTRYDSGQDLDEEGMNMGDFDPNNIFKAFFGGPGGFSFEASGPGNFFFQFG
UniProt Q8IY37: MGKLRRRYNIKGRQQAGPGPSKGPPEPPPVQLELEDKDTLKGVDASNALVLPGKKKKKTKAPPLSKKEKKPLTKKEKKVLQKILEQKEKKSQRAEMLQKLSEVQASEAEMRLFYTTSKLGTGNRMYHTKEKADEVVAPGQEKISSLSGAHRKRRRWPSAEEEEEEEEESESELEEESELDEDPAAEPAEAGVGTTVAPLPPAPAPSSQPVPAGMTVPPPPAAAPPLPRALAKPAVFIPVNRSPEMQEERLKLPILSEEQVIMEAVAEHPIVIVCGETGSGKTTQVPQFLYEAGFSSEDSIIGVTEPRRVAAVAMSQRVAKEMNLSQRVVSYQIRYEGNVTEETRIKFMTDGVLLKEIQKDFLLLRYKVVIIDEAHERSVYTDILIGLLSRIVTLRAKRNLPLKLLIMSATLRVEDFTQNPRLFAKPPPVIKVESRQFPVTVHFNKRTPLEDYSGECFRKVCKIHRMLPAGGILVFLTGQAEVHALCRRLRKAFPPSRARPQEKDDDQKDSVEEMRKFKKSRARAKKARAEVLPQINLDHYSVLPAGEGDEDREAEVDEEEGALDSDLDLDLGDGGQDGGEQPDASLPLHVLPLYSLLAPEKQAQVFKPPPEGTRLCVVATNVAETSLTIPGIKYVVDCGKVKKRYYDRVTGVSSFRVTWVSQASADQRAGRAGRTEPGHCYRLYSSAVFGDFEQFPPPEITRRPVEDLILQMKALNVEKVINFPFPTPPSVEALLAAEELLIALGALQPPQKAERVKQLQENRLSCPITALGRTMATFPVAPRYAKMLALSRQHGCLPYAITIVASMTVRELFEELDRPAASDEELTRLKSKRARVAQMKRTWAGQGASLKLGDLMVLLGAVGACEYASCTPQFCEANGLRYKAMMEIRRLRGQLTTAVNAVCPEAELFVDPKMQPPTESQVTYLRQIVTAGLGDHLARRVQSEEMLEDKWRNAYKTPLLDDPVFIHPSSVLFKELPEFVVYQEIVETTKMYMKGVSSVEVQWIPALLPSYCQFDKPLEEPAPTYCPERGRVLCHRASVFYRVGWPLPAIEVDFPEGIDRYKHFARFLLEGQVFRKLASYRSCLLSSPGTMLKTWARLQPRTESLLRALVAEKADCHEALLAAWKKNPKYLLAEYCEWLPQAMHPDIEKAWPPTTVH
UniProt Q9Y2L1: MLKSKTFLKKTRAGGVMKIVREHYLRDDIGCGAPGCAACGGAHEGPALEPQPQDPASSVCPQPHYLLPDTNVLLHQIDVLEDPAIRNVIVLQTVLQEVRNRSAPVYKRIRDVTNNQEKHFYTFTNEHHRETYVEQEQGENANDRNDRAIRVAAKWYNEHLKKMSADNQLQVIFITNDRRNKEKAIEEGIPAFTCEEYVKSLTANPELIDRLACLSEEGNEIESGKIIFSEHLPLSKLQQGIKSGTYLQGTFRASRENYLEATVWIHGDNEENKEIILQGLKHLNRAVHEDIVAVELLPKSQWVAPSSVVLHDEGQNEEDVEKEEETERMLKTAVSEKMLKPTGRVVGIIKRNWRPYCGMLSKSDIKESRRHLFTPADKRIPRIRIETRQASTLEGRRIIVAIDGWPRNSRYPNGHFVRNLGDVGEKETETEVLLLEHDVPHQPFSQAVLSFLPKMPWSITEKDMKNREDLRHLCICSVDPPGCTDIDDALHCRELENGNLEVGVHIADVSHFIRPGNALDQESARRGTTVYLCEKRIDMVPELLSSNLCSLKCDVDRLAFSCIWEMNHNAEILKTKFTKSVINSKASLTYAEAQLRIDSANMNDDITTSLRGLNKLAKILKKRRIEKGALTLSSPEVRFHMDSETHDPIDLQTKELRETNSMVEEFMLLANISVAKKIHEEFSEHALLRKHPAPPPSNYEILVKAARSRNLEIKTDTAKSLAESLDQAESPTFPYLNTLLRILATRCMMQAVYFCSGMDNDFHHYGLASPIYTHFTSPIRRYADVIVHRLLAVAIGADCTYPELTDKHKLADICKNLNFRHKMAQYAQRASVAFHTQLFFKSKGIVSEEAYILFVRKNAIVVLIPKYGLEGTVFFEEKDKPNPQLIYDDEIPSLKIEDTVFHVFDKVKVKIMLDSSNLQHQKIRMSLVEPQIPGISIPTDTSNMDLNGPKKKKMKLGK
UniProt Q9BZ29: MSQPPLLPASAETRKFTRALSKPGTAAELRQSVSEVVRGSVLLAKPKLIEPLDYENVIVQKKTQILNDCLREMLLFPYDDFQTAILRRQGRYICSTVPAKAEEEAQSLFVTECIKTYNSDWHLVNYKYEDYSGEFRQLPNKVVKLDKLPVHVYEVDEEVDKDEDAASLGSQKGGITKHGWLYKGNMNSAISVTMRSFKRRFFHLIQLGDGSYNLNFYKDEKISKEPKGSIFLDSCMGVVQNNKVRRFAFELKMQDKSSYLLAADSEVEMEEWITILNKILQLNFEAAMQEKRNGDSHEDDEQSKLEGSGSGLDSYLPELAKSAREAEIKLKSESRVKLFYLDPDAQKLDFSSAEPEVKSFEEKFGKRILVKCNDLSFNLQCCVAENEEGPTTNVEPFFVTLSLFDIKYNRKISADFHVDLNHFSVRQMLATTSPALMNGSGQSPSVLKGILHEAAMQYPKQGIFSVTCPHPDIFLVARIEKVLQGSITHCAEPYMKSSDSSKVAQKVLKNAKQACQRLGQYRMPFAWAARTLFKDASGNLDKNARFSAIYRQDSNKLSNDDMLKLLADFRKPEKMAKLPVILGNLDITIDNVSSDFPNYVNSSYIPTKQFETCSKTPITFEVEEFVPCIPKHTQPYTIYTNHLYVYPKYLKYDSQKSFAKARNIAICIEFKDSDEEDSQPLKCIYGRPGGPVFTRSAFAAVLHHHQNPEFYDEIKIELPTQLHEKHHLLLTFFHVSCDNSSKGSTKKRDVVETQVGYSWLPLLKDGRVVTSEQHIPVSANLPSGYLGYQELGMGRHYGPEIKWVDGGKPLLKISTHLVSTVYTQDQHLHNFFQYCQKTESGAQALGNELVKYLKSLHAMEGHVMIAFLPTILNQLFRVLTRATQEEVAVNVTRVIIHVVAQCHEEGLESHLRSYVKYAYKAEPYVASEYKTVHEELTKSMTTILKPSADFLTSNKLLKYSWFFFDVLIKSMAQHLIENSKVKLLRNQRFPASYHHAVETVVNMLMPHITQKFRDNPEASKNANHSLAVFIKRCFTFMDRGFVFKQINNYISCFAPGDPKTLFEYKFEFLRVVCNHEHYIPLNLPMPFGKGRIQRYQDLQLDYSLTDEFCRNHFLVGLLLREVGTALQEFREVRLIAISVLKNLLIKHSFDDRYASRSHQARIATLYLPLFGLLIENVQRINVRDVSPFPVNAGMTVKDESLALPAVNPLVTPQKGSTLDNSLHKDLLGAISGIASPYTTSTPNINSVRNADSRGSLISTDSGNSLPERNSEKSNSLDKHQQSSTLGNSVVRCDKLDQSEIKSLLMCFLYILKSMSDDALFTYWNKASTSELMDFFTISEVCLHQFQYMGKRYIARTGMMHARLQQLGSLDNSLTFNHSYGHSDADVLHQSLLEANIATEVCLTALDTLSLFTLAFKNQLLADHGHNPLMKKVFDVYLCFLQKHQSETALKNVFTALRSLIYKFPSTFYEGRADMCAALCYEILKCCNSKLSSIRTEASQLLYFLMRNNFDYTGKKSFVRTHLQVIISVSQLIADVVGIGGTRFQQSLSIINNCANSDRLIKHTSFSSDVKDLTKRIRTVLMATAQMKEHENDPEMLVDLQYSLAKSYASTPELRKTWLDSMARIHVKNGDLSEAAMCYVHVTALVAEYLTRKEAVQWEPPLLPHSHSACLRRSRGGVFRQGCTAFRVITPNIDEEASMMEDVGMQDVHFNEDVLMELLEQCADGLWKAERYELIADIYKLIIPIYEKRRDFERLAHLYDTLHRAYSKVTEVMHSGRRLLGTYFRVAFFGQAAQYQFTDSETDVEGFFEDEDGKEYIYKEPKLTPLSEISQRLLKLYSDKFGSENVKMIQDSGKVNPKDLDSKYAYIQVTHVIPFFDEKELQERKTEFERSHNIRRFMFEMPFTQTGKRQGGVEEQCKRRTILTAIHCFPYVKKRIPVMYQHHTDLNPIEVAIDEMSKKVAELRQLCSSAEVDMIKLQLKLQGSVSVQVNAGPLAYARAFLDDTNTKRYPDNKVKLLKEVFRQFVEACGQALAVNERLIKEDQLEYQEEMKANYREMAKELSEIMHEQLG
UniProt Q9UKB3: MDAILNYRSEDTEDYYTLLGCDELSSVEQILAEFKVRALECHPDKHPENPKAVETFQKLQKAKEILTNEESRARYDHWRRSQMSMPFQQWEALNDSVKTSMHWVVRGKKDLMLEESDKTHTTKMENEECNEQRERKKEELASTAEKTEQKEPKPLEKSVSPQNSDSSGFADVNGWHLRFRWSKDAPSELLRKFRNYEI
UniProt Q13574: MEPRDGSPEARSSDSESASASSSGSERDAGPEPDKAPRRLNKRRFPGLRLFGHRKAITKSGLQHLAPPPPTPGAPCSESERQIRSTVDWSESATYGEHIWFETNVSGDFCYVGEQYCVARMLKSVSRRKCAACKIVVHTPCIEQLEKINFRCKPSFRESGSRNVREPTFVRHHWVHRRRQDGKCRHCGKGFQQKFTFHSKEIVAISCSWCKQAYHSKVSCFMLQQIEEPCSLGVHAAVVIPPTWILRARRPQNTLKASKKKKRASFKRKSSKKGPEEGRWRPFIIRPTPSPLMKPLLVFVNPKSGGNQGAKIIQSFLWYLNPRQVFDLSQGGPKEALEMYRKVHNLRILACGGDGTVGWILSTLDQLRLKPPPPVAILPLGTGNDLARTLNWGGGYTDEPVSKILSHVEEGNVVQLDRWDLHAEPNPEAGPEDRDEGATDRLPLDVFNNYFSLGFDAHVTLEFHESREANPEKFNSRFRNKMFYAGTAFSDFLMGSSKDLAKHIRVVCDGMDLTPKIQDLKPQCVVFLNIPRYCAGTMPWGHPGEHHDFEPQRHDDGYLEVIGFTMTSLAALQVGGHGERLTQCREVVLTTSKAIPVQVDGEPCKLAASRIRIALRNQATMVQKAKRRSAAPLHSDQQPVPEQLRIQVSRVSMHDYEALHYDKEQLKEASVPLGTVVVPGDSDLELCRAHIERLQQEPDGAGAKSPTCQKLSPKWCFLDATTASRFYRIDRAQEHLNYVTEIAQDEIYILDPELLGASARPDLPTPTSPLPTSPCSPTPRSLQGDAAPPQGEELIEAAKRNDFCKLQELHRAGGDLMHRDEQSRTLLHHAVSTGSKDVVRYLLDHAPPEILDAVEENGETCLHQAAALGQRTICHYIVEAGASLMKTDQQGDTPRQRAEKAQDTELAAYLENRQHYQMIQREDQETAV

What was measured:
Experiment in all cases: log2 fold change, soluble protein after heating vs DMSO (PISA); higher = thermal stabilisation; K562 lysate, 10 uM; active = over 0.2 and 3.5 SD of the protein, either way, in both replicates (recomputed)
erlotinib = compound: C#Cc1cccc(Nc2ncnc3cc(OCCOC)c(OCCOC)cc23)c1 [erlotinib]
In short: (§1)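 A 30 min treatment with 10 μM compound was applied to crude K562 extract at 1 mg/mL protein in PBS pH 7.4 with 1 mM MgCl2. Heating for 3 min spanned 48°C-58°C, after which aliquots were pooled, adjusted to 0.5% NP-40 at 4°C and spun at 21,000xg for 90 min. TMTpro 16plex LC-MS/MS of the supernatant, with channel sums equalised, gave values recorded as log-two fold change in thermal stability against solvent controls, from duplicates.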

[1] = compound: C/C(=N\NC(=O)C1=CC(=CC=C1)S(=O)(=O)N2CCOCC2)/C3=C(C=CC(=C3)Cl)O
In short: as §1

[2] = compound: C1=CC(=CC=C1C2=NC3=C(N2)C=C(C=C3)C(=O)N)OC4=CC=C(C=C4)Cl
In short: as §1

[3] = compound: C1=CC2=C(C=CC(=C2)/C=C\3/C(=O)NC(=NCC4=CC=CS4)S3)N=C1
In short: as §1

[4] = compound: C1=CC2=NC=CN=C2C=C1/C=C/3\C(=O)NC(=O)S3
In short: as §1

[5] = compound: C1=CC=C(C=C1)C2=NC(=C(N2)C3=CC=NC=C3)C4=CC(=C(C=C4)Cl)O
In short: as §1

[6] = compound: C1=CC=C2C(=C1)C3=NNC4=CC=CC(=C43)C2=O
In short: as §1

[7] = compound: C1CCN(C1)C(=O)NC2=CC=CC(=C2)NC3=NC=C(C(=N3)NCCC4=CN=CN4)Br
In short: as §1

[8] = compound: C1CN(CCC1(CC2=CC=C(C=C2)Cl)N)C3=NC=NC4=C3C=CN4
In short: as §1

IRAK-1-4 Inhibitor I = compound: C1COCCN1CCN2C3=CC=CC=C3N=C2NC(=O)C4=CC(=CC=C4)[N+](=O)[O-] [IRAK-1-4 Inhibitor I]
In short: as §1

ibrutinib = compound: C=CC(=O)N1CCC[C@@H](n2nc(-c3ccc(Oc4ccccc4)cc3)c3c(N)ncnc32)C1 [ibrutinib]
In short: as §1

[9] = compound: CC(=O)c1cnc2ccc(-c3cc(Cl)c(O)c(Cl)c3)nc2c1N[C@H]1CC[C@H](CN(C)C)CC1
In short: as §1

ralimetinib = compound: CC(C)(C)Cn1c(N)nc2ccc(-c3[nH]c(C(C)(C)C)nc3-c3ccc(F)cc3)nc21 [ralimetinib]
In short: as §1

[10] = compound: CC(C)(O)CC(=O)NCCn1ccc2ncnc(Nc3ccc(Oc4cccc(C(F)(F)F)c4)c(Cl)c3)c21
In short: as §1

[11] = compound: CC(C)C1=C2N=C(C=C(N2N=C1)NCC3=CC=CC=C3)NCCCCCCN
In short: as §1

[12] = compound: CC1=C(C(CC(=O)N1)C2=CC=C(C=C2)C(F)(F)F)C(=O)NC3=C(C=C4C(=C3)C=NN4)F
In short: as §1

[13] = compound: CC1=C(C2=C(C=C1)C(=O)C3=CC=CC=C3N2CCCN)C
In short: as §1

[14] = compound: CC1=C(C=C(C=C1)NC(=O)C2=CC(=CC=C2)C(C)(C)C#N)NC3=CC4=C(C=C3)N=CN(C4=O)C
In short: as §1

[15] = compound: CC1=C(C=C(C=C1)NC(=O)C2=CC(=CC=C2)N(C)C)NC(=O)C3=CC=C(C=C3)O
In short: as §1

[16] = compound: CC1=CC=C(C=C1)SC2=C3C=C(SC3=CN=C2)C(=O)N
In short: as §1

Measured: log2 fold change

DLG1 isoform 2 (UniProt Q12959)
inactive: erlotinib -0.019 | [1] 0.014 | [2] 0.026 | [3] -0.039 | [4] 0.027 | [5] 0.004 | [6] -0.023 | [7] -0.02 | [8] 0.097 | IRAK-1-4 Inhibitor I 0.026 | ibrutinib -0.009 | [9] 0.02 | ralimetinib 0.005 | [10] -0.017 | [11] -0.018 | [12] 0.059 | [13] 0.007 | [14] 0.021 | [15] 0.036 | [16] -0.023

DHRS7 (UniProt Q9Y394)
inactive: erlotinib -0.014 | [1] 0.072 | [2] 0.012 | [3] 0.013 | [4] -0.011 | [5] -0.011 | [6] -0.04 | [7] -0.039 | [8] 0.019 | IRAK-1-4 Inhibitor I 0.01 | ibrutinib 0.045 | [9] -0.02 | ralimetinib 0.059 | [10] -0.052 | [11] -0.037 | [12] 0.051 | [13] -0.07 | [14] 0.023 | [15] -0.056 | [16] 0.022

DNAJA3 (UniProt Q96EY1)
inactive: erlotinib 0.032 | [1] -0.012 | [2] -0.011 | [3] -0.069 | [4] -0.055 | [5] 0.026 | [6] -0.018 | [7] -0.007 | [8] 0.036 | IRAK-1-4 Inhibitor I -0.014 | ibrutinib 0.064 | [9] -0.048 | ralimetinib 0.02 | [10] -0.049 | [11] 0.016 | [12] 0.006 | [13] -0.014 | [14] -0.03 | [15] 0.014 | [16] -0.029

DHRS4 (UniProt Q9BTZ2)
inactive: erlotinib -0.036 | [1] 0.007 | [2] 0.025 | [3] 0.026 | [4] -0.021 | [5] -0.015 | [6] 0.049 | [7] -0.002 | [8] -0.008 | IRAK-1-4 Inhibitor I 0.048 | ibrutinib -0.035 | [9] 0.004 | ralimetinib 0.058 | [10] -0.014 | [11] 0.038 | [12] -0.001 | [13] -0.026 | [14] -0.031 | [15] 0.056 | [16] -0.093

DHPS (UniProt P49366)
inactive: erlotinib -0.02 | [1] 0.005 | [2] 0.025 | [3] 0.006 | [4] -0.01 | [5] 0.003 | [6] -0.011 | [7] 0.016 | [8] 0.002 | IRAK-1-4 Inhibitor I 0.019 | ibrutinib 0.009 | [9] -0.018 | ralimetinib -0.013 | [10] -0.012 | [11] -0.005 | [12] -0.024 | [13] -0.027 | [14] 0.047 | [15] -0.022 | [16] -0.018

DNAJB4 (UniProt Q9UDY4)
inactive: erlotinib -0.03 | [1] -0.015 | [2] -0.016 | [3] -0.02 | [4] 0.053 | [5] 0.057 | [6] -0.008 | [7] -0.034 | [8] 0.015 | IRAK-1-4 Inhibitor I 0.015 | ibrutinib -0.02 | [9] 0.053 | ralimetinib -0.005 | [10] -0.014 | [11] 0.022 | [12] 0.033 | [13] 0.02 | [14] 0.001 | [15] 0.022 | [16] 0.01

DNAJC7 (UniProt Q99615)
inactive: erlotinib -0.024 | [1] -0.036 | [2] -0.076 | [3] 0.022 | [4] 0.007 | [5] 0.026 | [6] -0.055 | [7] -0.01 | [8] -0.03 | IRAK-1-4 Inhibitor I -0.07 | ibrutinib 0.019 | [9] 0.029 | ralimetinib 0.04 | [10] 0.083 | [11] 0.014 | [12] -0.005 | [13] -0.002 | [14] 0.078 | [15] -0.003 | [16] 0.028

DHX37 (UniProt Q8IY37)
inactive: erlotinib -0.106 | [1] 0.044 | [2] -0.083 | [3] 0.046 | [4] 0.212 | [5] -0.056 | [6] -0.043 | [7] -0.037 | [8] -0.029 | IRAK-1-4 Inhibitor I 0.032 | ibrutinib -0.056 | [9] 0.003 | ralimetinib -0.053 | [10] -0.051 | [11] -0.031 | [12] -0.028 | [13] -0.151 | [14] -0.059 | [15] 0.046 | [16] 0.037

DIS3 (UniProt Q9Y2L1)
inactive: erlotinib 0.018 | [1] 0.039 | [2] 0.01 | [3] -0.004 | [4] 0.002 | [5] -0.01 | [6] -0.017 | [7] 0.027 | [8] 0.031 | IRAK-1-4 Inhibitor I 0.012 | ibrutinib 0.011 | [9] 0.004 | ralimetinib 0.006 | [10] 0 | [11] 0.035 | [12] -0.017 | [13] -0.003 | [14] 0.009 | [15] 0.005 | [16] 0.018

DOLPP1 (UniProt Q86YN1)
inactive: erlotinib 0.004 | [1] -0.283 | [2] -0.052 | [3] 0.014 | [4] -0.012 | [5] -0.031 | [6] -0.161 | [7] -0.101 | [8] 0.036 | IRAK-1-4 Inhibitor I -0.022 | ibrutinib -0.004 | [9] -0.016 | ralimetinib 0.016 | [10] -0.068 | [11] 0.096 | [12] 0.027 | [13] 0.022 | [14] 0.029 | [15] 0.092 | [16] -0.005

DHX36 (UniProt Q9H2U1)
inactive: erlotinib -0.013 | [1] -0.021 | [2] 0.014 | [3] 0.021 | [4] 0.003 | [5] -0.006 | [6] 0.005 | [7] 0.027 | [8] 0.014 | IRAK-1-4 Inhibitor I 0.018 | ibrutinib 0.021 | [9] -0.013 | ralimetinib 0.027 | [10] -0.016 | [11] -0.013 | [12] -0.001 | [13] 0.016 | [14] -0.022 | [15] -0.019 | [16] 0.007

DNAAF5 (UniProt Q86Y56)
inactive: erlotinib -0.008 | [1] 0.041 | [2] -0.062 | [3] -0.057 | [4] 0.021 | [5] -0.016 | [6] -0.08 | [7] -0.003 | [8] 0.007 | IRAK-1-4 Inhibitor I -0.039 | ibrutinib -0.043 | [9] 0.032 | ralimetinib 0.074 | [10] -0.049 | [11] -0.043 | [12] -0.002 | [13] -0.005 | [14] -0.035 | [15] 0.047 | [16] 0.061

Reprinted at random: 2 records from the list
DNAJB4 (UniProt Q9UDY4)
inactive: erlotinib -0.03 | [1] -0.015 | [2] -0.016 | [3] -0.02 | [4] 0.053 | [5] 0.057 | [6] -0.008 | [7] -0.034 | [8] 0.015 | IRAK-1-4 Inhibitor I 0.015 | ibrutinib -0.02 | [9] 0.053 | ralimetinib -0.005 | [10] -0.014 | [11] 0.022 | [12] 0.033 | [13] 0.02 | [14] 0.001 | [15] 0.022 | [16] 0.01

DHRS4 (UniProt Q9BTZ2)
inactive: erlotinib -0.036 | [1] 0.007 | [2] 0.025 | [3] 0.026 | [4] -0.021 | [5] -0.015 | [6] 0.049 | [7] -0.002 | [8] -0.008 | IRAK-1-4 Inhibitor I 0.048 | ibrutinib -0.035 | [9] 0.004 | ralimetinib 0.058 | [10] -0.014 | [11] 0.038 | [12] -0.001 | [13] -0.026 | [14] -0.031 | [15] 0.056 | [16] -0.093

(further entries)

DOCK9 isoform 4 (UniProt Q9BZ29)
inactive: erlotinib 0.034 | [1] 0 | [2] -0.015 | [3] 0.021 | [4] 0.055 | [5] 0.002 | [6] -0.072 | [7] -0.018 | [8] 0.034 | IRAK-1-4 Inhibitor I 0.011 | ibrutinib -0.031 | [9] 0.007 | ralimetinib -0.06 | [10] 0.001 | [11] -0.038 | [12] 0.062 | [13] -0.048 | [14] -0.06 | [15] 0.06 | [16] -0.008

DNAJC12 (UniProt Q9UKB3)
inactive: erlotinib -0.03 | [1] -0.057 | [2] 0.024 | [3] -0.013 | [4] 0 | [5] -0.005 | [6] 0.039 | [7] -0.006 | [8] -0.001 | IRAK-1-4 Inhibitor I -0.005 | ibrutinib 0.015 | [9] -0.012 | ralimetinib -0.009 | [10] -0.006 | [11] 0.03 | [12] 0.034 | [13] -0.036 | [14] 0.025 | [15] -0.007 | [16] -0.066

DGKZ (UniProt Q13574)
inactive: erlotinib 0.053 | [1] -0.039 | [2] 0.057 | [3] 0.005 | [4] 0.14 | [5] 0.05 | [6] 0.019 | [7] -0.039 | [8] -0.044 | IRAK-1-4 Inhibitor I -0.008 | ibrutinib 0.011 | [9] 0.026 | ralimetinib 0.016 | [10] -0.041 | [11] 0.014 | [12] 0 | [13] -0.038 | [14] 0.059 | [15] 0.009 | [16] -0.02

DNAJB12 (UniProt Q9NXW2)
inactive: erlotinib 0.049 | [1] 0.163 | [2] 0.007 | [3] -0.037 | [4] 0.033 | [5] -0.066 | [6] -0.055 | [7] 0.019 | [8] 0.069 | IRAK-1-4 Inhibitor I -0.009 | ibrutinib 0.064 | [9] 0.069 | ralimetinib 0.026 | [10] -0.081 | [11] 0.033 | [12] 0.005 | [13] 0.088 | [14] 0.068 | [15] 0.042 | [16] 0.036
